Data source: PubChem BioAssay AID652259 (Drosophila RNAi Screening Center, 2013)
Aim: 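Genome-wide hunt for genes that control Wingless pathway activity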 (primary screen). System: Drosophila clone 8 imaginal disc epithelial cells. Reagents: long dsRNA against Drosophila genes. Treatment: pathway stimulated by co-transfected Wingless expression plasmid. Read-out: 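Dual luciferase reads per well after Wingless plasmid stimulation: reporter firefly light and Renilla control light; activity is firefly divided by Renilla, a ratio not deposited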. Scale: firefly reporter light: higher = more Wg reporter light, before normalisation; Renilla control light: higher = more transfected or surviving cells. Call rule: 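Strong candidates differ from their plate mean by at least two out of four per-plate statistical tests; weak candidates meet just one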. Meaning of the calls: active = candidate regulator (raises or lowers reporter); inactive = not a candidate.
The deposit covers about 22,000 reagents; shown is a random part of those that have a named target and a result. Over the whole deposit, 233 (1.1%) got an active call. 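Light values are raw, unnormalised plate reads; the ratio scores behind the reporter calls were not deposited.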 A number with no mark means an inactive call. The record does not give: the amount of reagent, the time to read-out, the dose of the treatment.

For CG10405 [DRSC14238], what was measured?
firefly reporter light, replicate 1: 17916; Renilla control light, replicate 1: 5049

For mEFTs [DRSC02953], what was measured?
firefly reporter light, replicate 1: 9735; Renilla control light, replicate 1: 3259

What is on record for Dph5 [DRSC16653]?
firefly reporter light, replicate 1: 2279; firefly reporter light, replicate 2: 7252; Renilla control light, replicate 1: 1427; Renilla control light, replicate 2: 2003

With CG7632 [DRSC11842], what was measured?
firefly reporter light, replicate 1: 9868; Renilla control light, replicate 1: 4242

For DnaJ-1 [DRSC11145], what was measured?
firefly reporter light, replicate 1: 3187; Renilla control light, replicate 1: 880

For bma [DRSC09896], what does the deposit list?
firefly reporter light, replicate 1: 5963; Renilla control light, replicate 1: 3789

Which result is listed for bma [DRSC10164]?
firefly reporter light, replicate 1: 6457; Renilla control light, replicate 1: 4176

Only “Renilla control light, replicate 1” (2 entries from above):
bma [DRSC09896]: 3789
bma [DRSC10164]: 4176

The results go on.
What did the screen give for CG42633 [DRSC16061]?
firefly reporter light, replicate 1: 12213; Renilla control light, replicate 1: 3776

What is on record for AIMP2 [DRSC09877]?
firefly reporter light, replicate 1: 3256; Renilla control light, replicate 1: 1458

How did the screen score CG34348 [DRSC19425]?
firefly reporter light, replicate 1: 18732; Renilla control light, replicate 1: 9209

What did the screen give for CG34348 [DRSC19644]?
firefly reporter light, replicate 1: 22973; Renilla control light, replicate 1: 9895

What did the screen give for CG33282 [DRSC00422]?
firefly reporter light, replicate 1: 3193; firefly reporter light, replicate 2: 7168; Renilla control light, replicate 1: 1211; Renilla control light, replicate 2: 2154

What did the screen give for Ubc84D [DRSC12610]?
firefly reporter light, replicate 1: 12291; Renilla control light, replicate 1: 3621

Which result is listed for Obp56e [DRSC07188]?
firefly reporter light, replicate 1: 4256; Renilla control light, replicate 1: 2042

With Pex7 [DRSC10651], what does the deposit list?
firefly reporter light, replicate 1: 1064; firefly reporter light, replicate 2: 4694; Renilla control light, replicate 1: 972; Renilla control light, replicate 2: 2061

With CG5339 [DRSC04496], what was measured?
firefly reporter light, replicate 1: 9312; Renilla control light, replicate 1: 3302

What is on record for CG16762 [DRSC08493]?
firefly reporter light, replicate 1: 6068; Renilla control light, replicate 1: 2850
